{"source": "patent US20240342227A1", "about": "“COMBINATION OF E. FAECALIS AND AN ANTI-INFLAMMATORY AGENT AND USES THEREOF IN THE PREVENTION AND/OR TREATMENT OF RESPIRATORY DISEASES” (INSTITUT NATIONAL DE RECHERCHE POUR L'AGRICULTURE, …, priority 2021, published 2024)", "key": {"BEAS-2B cells": {"system": "BEAS-2B cells", "assay": "IL-8 release induced by TNF-α on BEAS-2B cells (ELISA on supernatant after 6 h)", "format": "cell-based, human", "details": "budesonide alone, 0.1 nM", "experimental": "BEAS-2B cells were co-incubated with TNF-α (1 pg/mL) alone or with different doses of budesonide (1.5; 0.75; 0.5; 0.1 nM). After 6 hours of incubation, the IL-8 concentration was measured in the supernatant. IL-8 levels are expressed as a percentage of the IL-8 level induced by stimulation with TNF-α for 6 hours. The results correspond to the mean+SEM for at least 3 experiments, n=6-12 technical replicates. *p<0.05 and ***p<0.001 compared with the TNF-α control group.\nBEAS-2B cells were co-incubated with TNF-α (1 pg/mL) alone or with a strain of E. faecalis (CNCM I-4969; I-5701; I-5699) MOI 10:1, and/or 0.1 nM of budesonide, or 0.5 nM of budesonide. After 6 hours of incubation, the IL-8 concentration was measured in the supernatant by ELISA. IL-8 levels are expressed as a percentage of the IL-8 level induced by stimulation with TNF-α for 6 hours. The results correspond to the median of 3 experiments, n=9 technical replicates. *p<0.05 and ***p<0.001 compared with the TNF-α control group, by a Kruskal-Wallis non-parametric test followed by Dunn's post-test.\nHuman bronchial cells (BEAS-2B) are cultured and a pro-inflammatory situation is induced via the addition of TNF-α to the medium. The BEAS-2B cells then respond by releasing IL-8 into the medium. The IL-8 assay after 6 hours is used to estimate the activation state of the cells, which can be reduced by adding an anti-inflammatory agent."}, "mouse lung explants": {"system": "mouse lung explants", "assay": "Cytokine release by lung explants of axenic mice in ex vivo culture (Luminex multiplex, 24 h)", "format": "cell-based", "details": "budesonide alone, 0.1 nM"}}, "note": "Entries after “also recorded” stand apart in the source; their conditions may differ. For at least one compound, name, drawing or mass did not settle the structure."}
{"smiles": "CCCC1O[C@@H]2C[C@H]3[C@@H]4CCC5=CC(=O)C=C[C@]5(C)[C@H]4[C@@H](O)C[C@]3(C)[C@]2(C(=O)CO)O1", "note": "(some centres unmarked) [budesonide]", "values": [{"measurement": "effect on the release of IL-8 induced by TNF-α", "setting": "BEAS-2B cells", "result": "little or no anti-inflammatory effect; also recorded: did not induce an effect"}, {"measurement": "effects on the cytokines measured in the explant supernatant", "setting": "mouse lung explants", "result": "no effects, or modest effects"}]}
